Values quoted from earlier work, collected in patent US9493420B2, “Quinoline derivatives and uses thereof” (Portland State University, priority 2005, dated 2016).
For at least one compound, name, drawing or mass did not settle the structure.

Key:
Details in all cases: cited from earlier work
P. falciparum strain W2 = tested on: P. falciparum strain W2
P. falciparum strain D6 = tested on: P. falciparum strain D6
P. falciparum strain Dd2 = tested on: P. falciparum strain Dd2
[1] = tested on: P. falciparum strain TM91C235
[2] = tested on: P. falciparum strain FCR3
Further: key: S = sensitive; R = resistant; S/R = intermediate level of resistance.

CCc1nc(N)nc(N)c1-c1ccc(Cl)cc1 [Pyrimethamine]
Drug susceptibility, strain W2 (P. falciparum strain W2): R | Drug susceptibility, strain D6 (P. falciparum strain D6): S | Drug susceptibility, strain Dd2 (P. falciparum strain Dd2): R | Drug susceptibility, strain TM91C235 [1]: R | Drug susceptibility, strain FCR3 [2]: S
